# Assay results from paper PMC7819943, “Rice protein-binding microarrays: a tool to detect cis-acting elements near promoter regions in rice”.
# By UniProt entry, the sequences of proteins in these tests, tags left out.
# UniProt Q0JBA9, entry or part of it: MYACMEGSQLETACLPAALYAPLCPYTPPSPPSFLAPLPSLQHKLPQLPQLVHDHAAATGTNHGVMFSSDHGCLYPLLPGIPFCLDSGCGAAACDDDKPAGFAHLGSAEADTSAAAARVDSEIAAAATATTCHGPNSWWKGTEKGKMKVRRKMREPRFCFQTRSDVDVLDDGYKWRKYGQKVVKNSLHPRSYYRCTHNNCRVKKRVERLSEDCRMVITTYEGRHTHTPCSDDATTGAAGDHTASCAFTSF
# The list shows a part of the results.
# Molecular target: OsWRKY34 (Oryza sativa, UniProt Q0JBA9 1-250)
# Assay: protein-binding microarray (RPBM); PBS, 2% BSA, 51.3 ng/ul salmon testes DNA, 50 uM zinc acetate, 200 nM TF, 25 C, 1 h; high values mean tight binding
# Details: protein: recombinant; tags: N-terminal polyhistidine and DsRed monomer fusion (pET32a); label: CyDye5-dUTP incorporated in the synthesized complementary strand; 3' TTTTT single-stranded linker to array surface; dsDNA, one strand shown
# In short: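 Transcription factors were each fused at the N-terminus to a polyhistidine tag plus DsRed and expressed in E. coli BL21-CodonPlus before Ni–NTA purification. Binding to a double-stranded custom Agilent array was carried out with 200 nM protein at 25 °C for 1 h in PBS, 2% BSA, salmon testes DNA and 50 µM zinc acetate. The binding signal is per-feature fluorescence intensity, in arbitrary units, on an Axon 4000B scanner.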
row,Sequence,binding signal
1,TTCAGTCTACTACACCTGAACTATGTTTAACTGATGTTTTCGGAGTCACCTAGTGCAG,8530 fluorescence intensity (a.u.)
2,TCCAGAAGACACCCGCCTGCTCCACTGCCGTTCCTGTCGACGGAGTCACCTAGTGCAG,9120 fluorescence intensity (a.u.)
3,CCTCAAACCAATCTGCCAATCTCTCAACCATTCCATCTCTCGGAGTCACCTAGTGCAG,9350 fluorescence intensity (a.u.)
4,CTATTCCAGAAATCTGTTCTTCCTCAGGGCCGTATCCACACGGAGTCACCTAGTGCAG,9340 fluorescence intensity (a.u.)
5,CGTTTTACCGGCACCTGCCTGGAGAGCCATTGTCCTAGTGCGGAGTCACCTAGTGCAG,8570 fluorescence intensity (a.u.)
6,AAAATTCACAAGGCCACGCGCATCTTGTCTCGGCCAAAAACGGAGTCACCTAGTGCAG,8050 fluorescence intensity (a.u.)
7,GGCTCCGCTCGCCTCGTCTCGTCCCCGTCTCGTCTCGTCTCGGAGTCACCTAGTGCAG,10600 fluorescence intensity (a.u.)
8,ACTAAATTGGGTTGGGGTGCCTCCTCCTTCCTTTCTTTCTCGGAGTCACCTAGTGCAG,14900 fluorescence intensity (a.u.)
9,CATCGTATTCCGCGCGCACGCTTCCCAAACTACTAAACGACGGAGTCACCTAGTGCAG,8780 fluorescence intensity (a.u.)
10,CCTTGTACCTCCCATTGTGGTCCTTTGATAGGCATGCAACCGGAGTCACCTAGTGCAG,8190 fluorescence intensity (a.u.)
11,GACGCGCCACACACACGCACATCTGCAGTTACTCACTCCTCGGAGTCACCTAGTGCAG,10500 fluorescence intensity (a.u.)
12,GCGATCTCGCTCGCCGCTCGCTTTCATCATCATGTCCCTTCGGAGTCACCTAGTGCAG,10500 fluorescence intensity (a.u.)
13,TTCGCGCTCTATCCTTCACCACCGCCTCCGACAACCCTATCGGAGTCACCTAGTGCAG,9320 fluorescence intensity (a.u.)
14,TCGGGGAAGCATTTGTTTGGGAGAGTTTAAGATTATAAGACGGAGTCACCTAGTGCAG,8040 fluorescence intensity (a.u.)
15,TCCGCTGCCTTCGATTCTTGGTAAGCCCCTAATTCTCCTTCGGAGTCACCTAGTGCAG,8420 fluorescence intensity (a.u.)
16,TGGATTTAGGATGTTACTTTGATTTGGGGATTTGGGGTTTCGGAGTCACCTAGTGCAG,17200 fluorescence intensity (a.u.)
17,ATACTTCTCTCTCTCTCTTTCATTTTCAACTATAGAAATTCGGAGTCACCTAGTGCAG,8710 fluorescence intensity (a.u.)
18,CCTCTTCACCGACTTGCTTCTCGGCTTCGTCTTGGATTTGCGGAGTCACCTAGTGCAG,14900 fluorescence intensity (a.u.)
19,ATGTTTACGTGCAACACATTATGGTTCTCTTCTCTGTAAACGGAGTCACCTAGTGCAG,8230 fluorescence intensity (a.u.)
20,CTCCCGCCGCTGTCTCCGCCCCTCCTCCTGCCGTCGTCCCCGGAGTCACCTAGTGCAG,8140 fluorescence intensity (a.u.)
21,CCGTTGGCCGCCCATCCTCGTCTCCCATTTGCTGATCAACCGGAGTCACCTAGTGCAG,9880 fluorescence intensity (a.u.)

row,Sequence,binding signal
1,CACACGCTCTCAACTCACTCCCGCTCAACACAGCGCTCACCGGAGTCACCTAGTGCAG,11000 fluorescence intensity (a.u.)
2,AATATGTAGCCCGCTGATTATCTCTCTCTCTTTTTTTTTTCGGAGTCACCTAGTGCAG,9170 fluorescence intensity (a.u.)
3,CCTCGTTTGGAGGTTGCAACTTTTTAATTTTCTGTTAGCACGGAGTCACCTAGTGCAG,8960 fluorescence intensity (a.u.)
4,AAAACCCCAACTTTTTATTTCCTGCCGTTTTCTTTTTCTTCGGAGTCACCTAGTGCAG,8100 fluorescence intensity (a.u.)
5,TTTGTCATACCGGATCTGTCCTTATTTTATGGTTGTTCAACGGAGTCACCTAGTGCAG,9560 fluorescence intensity (a.u.)
6,TCATATCATTCCTACTCAACCATAGAGCCCAACATATAGCCGGAGTCACCTAGTGCAG,9290 fluorescence intensity (a.u.)
7,CCCATCTCCACCCGTCCATTTTTCCAACGTTCTAGATCCACGGAGTCACCTAGTGCAG,14100 fluorescence intensity (a.u.)
8,TTGCCCTACACGAACGGGTCCGGACCTATTTCAGCTGTACCGGAGTCACCTAGTGCAG,8540 fluorescence intensity (a.u.)
9,CTCGGTAGCTAATACTACTTTACTTTATTACTGTCGTTTTCGGAGTCACCTAGTGCAG,10200 fluorescence intensity (a.u.)
10,GCCATCCTTGTCTCAACTACTCGTCAAGTTGCTCCACATGCGGAGTCACCTAGTGCAG,9050 fluorescence intensity (a.u.)
11,ACTCTGAGGTCCTTTCTCTATTGGACCCATCATCATCAGCCGGAGTCACCTAGTGCAG,9130 fluorescence intensity (a.u.)
12,ACTCGATCGAGAGCTCCAACCACTCTCAAAATTTACACCTCGGAGTCACCTAGTGCAG,8510 fluorescence intensity (a.u.)
13,AAACCCCTTCAGTTAATCTGTTCGTTGACCAAGTTTAATTCGGAGTCACCTAGTGCAG,13300 fluorescence intensity (a.u.)
14,GAGAGTTAGGGGTTGAGATATCCGGTTCTGTGGTTTGGGGCGGAGTCACCTAGTGCAG,9020 fluorescence intensity (a.u.)
15,AACTCGATCTCTGCCTCCGACTTCGCTTCAATCTAATCTTCGGAGTCACCTAGTGCAG,12900 fluorescence intensity (a.u.)
16,ATCATGTGTGTTCTCTCTCTCCCTCTCTCTGTTTTTTGGGCGGAGTCACCTAGTGCAG,9200 fluorescence intensity (a.u.)
17,CCGCCCACCCGCCTTAGCATCCACCGCCTTTGCCTATGCGCGGAGTCACCTAGTGCAG,16300 fluorescence intensity (a.u.)
18,ACTACCACCTTCTCTTGCCGTGTTTAATCCGTCCCCGCTCCGGAGTCACCTAGTGCAG,9690 fluorescence intensity (a.u.)
19,AGGGATTTTAATTGGATGCGATACGTCTGGACAGGCTTCACGGAGTCACCTAGTGCAG,8060 fluorescence intensity (a.u.)
20,ACAACATTTAAAACTACAAAGACTGCAGATCTACATATTTCGGAGTCACCTAGTGCAG,8260 fluorescence intensity (a.u.)
21,AAGTAGGGTTAGGTTCATAGACCATAGATGCGCGGATCATCGGAGTCACCTAGTGCAG,9550 fluorescence intensity (a.u.)

row,Sequence,binding signal
1,GACTTTGCTTTTTCTTTTTCTTCGATTAATGTGAGAATTTCGGAGTCACCTAGTGCAG,11200 fluorescence intensity (a.u.)
2,TAGTTGTGGCTTTGGGTGGTTGTTCTATTTTTGGGACAAACGGAGTCACCTAGTGCAG,8830 fluorescence intensity (a.u.)
3,CCGGTCACCATCGCCGTCATCACCGCGCCCCTCGATCCGACGGAGTCACCTAGTGCAG,8610 fluorescence intensity (a.u.)
4,TGTACTACGAACATGTTGCTCCTGTTATACATTAGTTTCCCGGAGTCACCTAGTGCAG,8310 fluorescence intensity (a.u.)
5,TCCTCTTGCAAAAAAAACACACACACACACGCACACAACTCGGAGTCACCTAGTGCAG,10200 fluorescence intensity (a.u.)
6,GCCCACACCGCCGCAATATAAACCCGTCCTCATCACACACCGGAGTCACCTAGTGCAG,11500 fluorescence intensity (a.u.)
7,AATAGAGTGCATATCAGTTCTTGCTACCATACCCTCTTTTCGGAGTCACCTAGTGCAG,9490 fluorescence intensity (a.u.)
8,TTCTGCTAGTTTGGACATCTTTTTTTGCTTTGTTCCATGACGGAGTCACCTAGTGCAG,9670 fluorescence intensity (a.u.)
9,AATCCATTATCCATTCCTTTCCTTTCCGGTGACATGTAGTCGGAGTCACCTAGTGCAG,8270 fluorescence intensity (a.u.)
10,ATTCGTCGGGGAATCGCAATTTTGTGGGTTTGGGGCTGACCGGAGTCACCTAGTGCAG,10000 fluorescence intensity (a.u.)
11,CCTAAATGTTTGACACCGTTGACTTTTTTAAACATATTTGCGGAGTCACCTAGTGCAG,33000 fluorescence intensity (a.u.)
12,GTTCAGGATGCTGCTGCGTCTTCCGTGCGCGCGCGGCCCCCGGAGTCACCTAGTGCAG,8360 fluorescence intensity (a.u.)
13,GCTTTGGTGTTTTAATTTCTCTCTATTTTGCTCTGCTGCTCGGAGTCACCTAGTGCAG,11100 fluorescence intensity (a.u.)
14,ACCCTACCCTTGCTGCGCTGCCCATTTCCGTCGCCGCTGTCGGAGTCACCTAGTGCAG,9610 fluorescence intensity (a.u.)
15,TAGTGGTGGTGGTGGTGGCTATGGAGGAGGAAGGTATGAGCGGAGTCACCTAGTGCAG,12100 fluorescence intensity (a.u.)
16,GCCGGCAAAGTCGCCGTTCCACGTTCCCGCCGCCGGCGCCCGGAGTCACCTAGTGCAG,8520 fluorescence intensity (a.u.)
17,GCACTACACTCTCCTCCACTCGCACCCACACATCGCCTTCCGGAGTCACCTAGTGCAG,9050 fluorescence intensity (a.u.)
18,TTCTCTTCTAATGTTACTTATTTTTTAATTCCGAATTTTACGGAGTCACCTAGTGCAG,8040 fluorescence intensity (a.u.)
19,ACAAACTTCTAACTTTTTCGTCACATCATTCCAATTTCAACGGAGTCACCTAGTGCAG,10500 fluorescence intensity (a.u.)
20,ACAAATGGTCAAACGTTGGTCGAAAAGTCAACGGCGTCATCGGAGTCACCTAGTGCAG,13700 fluorescence intensity (a.u.)
21,CAGTCGTGGTTCAATCAAACGGTTATTCATATGTTTTTCACGGAGTCACCTAGTGCAG,10800 fluorescence intensity (a.u.)

row,Sequence,binding signal
1,CTTGCTCCTACACTCGCTACTGCTGTCCTTCCCACCATTGCGGAGTCACCTAGTGCAG,8030 fluorescence intensity (a.u.)
2,AGGCCCGGTCAAAGTTTGACTATTTTGCCCACAACTCAGACGGAGTCACCTAGTGCAG,12600 fluorescence intensity (a.u.)
3,GCATTACGATGGTTCTTTTCTACCTATAGACAACTTTTTTCGGAGTCACCTAGTGCAG,9360 fluorescence intensity (a.u.)
4,CCGCTTCTTTTCTCGCTTCTGCTCCCCGCCGCCACCGCCTCGGAGTCACCTAGTGCAG,11700 fluorescence intensity (a.u.)
5,TACTGTTGTATGCTGTTCCCTTGCCGTCTCTGAACTTTCCCGGAGTCACCTAGTGCAG,15400 fluorescence intensity (a.u.)
6,TCGTTTGATGCGATTTCGGCGGCGATCACCACCACCACCACGGAGTCACCTAGTGCAG,8160 fluorescence intensity (a.u.)
7,TATCTTTGAGGAGGTTTAGTACTTCTTTTGGGCTTTTCTTCGGAGTCACCTAGTGCAG,10600 fluorescence intensity (a.u.)
8,CACCACAGCAAAGGAACACACTTTTTTTCTCTTCTTCTTTCGGAGTCACCTAGTGCAG,9720 fluorescence intensity (a.u.)
9,ACTTTCCTGCTAAGTTGTTGTACTAGAACGCTTATTTTTCCGGAGTCACCTAGTGCAG,10000 fluorescence intensity (a.u.)
10,ATTTTGGGCCTATTCACTTTGATGTCATTTTTAACCATACCGGAGTCACCTAGTGCAG,9660 fluorescence intensity (a.u.)
11,TCGCCCGCTATCTCCCACAACTCCACCTCTCCACATCTTCCGGAGTCACCTAGTGCAG,8820 fluorescence intensity (a.u.)
12,AACCCTACAGCGCCTCCACCACCACTCCTTGCCTTTTTTGCGGAGTCACCTAGTGCAG,9890 fluorescence intensity (a.u.)
13,ATGGGAAAAATGTACTCTTGCATGTGTGCCAAATTTGGTTCGGAGTCACCTAGTGCAG,8970 fluorescence intensity (a.u.)
14,CGCCGACACATAATACGTTGGCAGTGCTATATACATATTTCGGAGTCACCTAGTGCAG,8770 fluorescence intensity (a.u.)
15,TATATATATATATGTGTGTGTGTTCTTAGCGACTTAAAAACGGAGTCACCTAGTGCAG,9070 fluorescence intensity (a.u.)
16,TCACCCGAAACCCTAGCCCCATTCGCCGCCGGGGTCGCGGCGGAGTCACCTAGTGCAG,8170 fluorescence intensity (a.u.)
17,ACTAGTGGATTGATTCCCGGTCTCTTATTGTCCCTATCATCGGAGTCACCTAGTGCAG,10000 fluorescence intensity (a.u.)
18,ATACTCTTGGTTTATCTTTGATTTTGTATATCTTTTTATTCGGAGTCACCTAGTGCAG,9720 fluorescence intensity (a.u.)
19,GACGCCCCTGTGCAGCGCCGCTCTTGTTCGAATCCGGCCGCGGAGTCACCTAGTGCAG,8780 fluorescence intensity (a.u.)
20,AACAGGGCCATGTCTAGATTTGTAGTTGTCACATCCGGTTCGGAGTCACCTAGTGCAG,8090 fluorescence intensity (a.u.)
21,CCACCCGTACGTCGCAAGCCCGTTCCATCTCGCACACTATCGGAGTCACCTAGTGCAG,9640 fluorescence intensity (a.u.)

# Looked up above.
# In binding signal, TCGTTTGATGCGATTTCGGCGGCGATCACCACCACCACCACGGAGTCACCTAGTGCAG reads 8160 fluorescence intensity (a.u.)
# In binding signal, CTTGCTCCTACACTCGCTACTGCTGTCCTTCCCACCATTGCGGAGTCACCTAGTGCAG reads 8030 fluorescence intensity (a.u.)
# In binding signal, TATCTTTGAGGAGGTTTAGTACTTCTTTTGGGCTTTTCTTCGGAGTCACCTAGTGCAG reads 10600 fluorescence intensity (a.u.)

# 3 records picked at random from the list so far:
row,Sequence,binding signal
21,CCGTTGGCCGCCCATCCTCGTCTCCCATTTGCTGATCAACCGGAGTCACCTAGTGCAG,9880 fluorescence intensity (a.u.)
19,GACGCCCCTGTGCAGCGCCGCTCTTGTTCGAATCCGGCCGCGGAGTCACCTAGTGCAG,8780 fluorescence intensity (a.u.)
5,CGTTTTACCGGCACCTGCCTGGAGAGCCATTGTCCTAGTGCGGAGTCACCTAGTGCAG,8570 fluorescence intensity (a.u.)
